Experimental data: patent US20090181898A1, “ABUSE-RESISTANT A[…]” (SHIRE LLC, priority 2002, published 2009)

Test: Reactivity in the d-amphetamine ELISA (Amphetamine Ultra, Neogen)

Row | Molecule | Reactivity in the d-amphetamine ELISA [%]
1 | L-lysine-d-amphetamine diHCl | < 1
2 | [2H]Oc1ccc(CC(C)N)cc1 (stereo not drawn) [para-hydroxy-d-amphetamine, reference compound] | 0.6
